Experimental data as given in publication doi:10.1101/596171.
These are yes or no findings as the source states them, for the method shown. In cells and extracts the contact can be indirect. A yes stands for co-enrichment or nearness to the bait. Other partners may have been found. A no says only that the protein was not detected with the bait. Values belong to the molecule of their own block, whether it stands above or below them.

By UniProt entry, the sequences of proteins in these tests, tags left out. Where a name states a change or a piece, a line headed by the entry shows the natural chain unless it says otherwise.
UniProt A1Z7N6: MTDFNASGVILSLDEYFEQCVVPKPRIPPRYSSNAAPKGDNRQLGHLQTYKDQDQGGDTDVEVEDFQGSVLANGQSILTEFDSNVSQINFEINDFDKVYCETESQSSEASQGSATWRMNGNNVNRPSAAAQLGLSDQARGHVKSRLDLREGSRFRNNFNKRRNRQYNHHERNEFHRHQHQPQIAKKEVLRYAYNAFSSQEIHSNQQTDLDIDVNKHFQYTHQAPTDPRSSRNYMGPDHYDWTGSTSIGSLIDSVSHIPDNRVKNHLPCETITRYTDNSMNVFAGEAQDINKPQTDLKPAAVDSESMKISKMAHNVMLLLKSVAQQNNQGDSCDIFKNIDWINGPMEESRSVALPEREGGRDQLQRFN
UniProt Q27268: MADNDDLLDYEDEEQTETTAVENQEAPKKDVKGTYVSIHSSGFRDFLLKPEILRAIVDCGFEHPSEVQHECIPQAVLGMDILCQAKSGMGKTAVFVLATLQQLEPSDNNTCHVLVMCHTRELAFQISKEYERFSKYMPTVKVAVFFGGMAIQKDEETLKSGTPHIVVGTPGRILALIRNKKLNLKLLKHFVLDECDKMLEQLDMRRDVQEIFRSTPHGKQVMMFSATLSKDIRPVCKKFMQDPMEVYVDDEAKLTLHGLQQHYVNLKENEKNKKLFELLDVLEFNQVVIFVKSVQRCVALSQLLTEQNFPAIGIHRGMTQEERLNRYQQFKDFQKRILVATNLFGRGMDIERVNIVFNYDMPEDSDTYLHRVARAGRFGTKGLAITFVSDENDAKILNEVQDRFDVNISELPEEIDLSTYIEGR

Key:
[1] = molecular target: CG13741-LAP (Drosophila melanogaster) (UniProt A1Z7N6); assay: affinity purification with mass spectrometry
[2] = molecular target: CG13741-LAP (Drosophila melanogaster), A1Z7N6; assay: affinity purification with mass spectrometry; conditions: remark: other sources report otherwise

binding [1]: binds
Molecule: UAP56 (from UniProt Q27268 1-424)

binding [2]: no binding
B1: Rhino, Q7JXA8 1-418 (protein)
chain: MSRNHQRPNLGLVDAPPNDHVEEYVVEKILGKRFVNGRPQVLVKWSGFPNENNTWEPLENVGNCMKLVSDFESEVFRLHRKAAAKSVGKSKSSPSSSGPLITENGPSSSKKTQQHSKSVQAKNTAGMSKMNQKKGKNIKKTAGKIKDIENYPKTQMPSTSQVSTDSTEVFDGNPSATTTNMIKSPRIQSLFSDLNLIEPTKDKDVGDTSLKTPPKSRRLIEFPQREDAPLSSKHVSPMLIRKESQPLQSSCTDDSDLGESSSSMSLPTVSSTSSEKSIKVTKSEPKTLGQIKFSSRSSDGGHAASSLGAPKEGDIGLDLSGSDSMDSEVESMRRCPRRKRKKTYPDWKFPEMTKPFGVNRGLDLDKILHCYQMNDDLFMFVTWKGCSSIDAVHINDIKEAYPLQIIKYFESLRIIVPK

binding [2]: no binding
B2: Deadlock, Q9VIF5 1-981 (protein)
chain: MEKLDKIRMSQKLSCWQHILTTLGTSSKTEQEWNTFFKGFLESWRKPYCIQTSCDPSIPLRKELLVRPRKALQENPHGPGSTLPESPVFLEPINSTAPREHPSPSKSHSTGSTGCDPGNGERSPSVSNKNSKYKNPGNSKYAKIWKRSNNHTTSIFSKAQISKRRDKLSSTKKRPDTCAPTDDSRKNREPRACAPNKNIFKTRETNAPNLTKNSCALPNVLILSPNSASKITQRGHSVGQTQDYKASPGKIIKRVPRYSLQCLKKKTEKVHNKIMDKPKNKQQPQTPPPFLLNNEYTESSDDSDDQLPLSELSQKMKSNKLNTLFLSRNEDCSPAPEKVKLKGERPAQNKKEQLTWEPSILTNLTDLGKQVAEPLRKSVKKSAKQQKPRVRAPPQGKKTLPQLQTGLKTQDKQSTHEMISEQAKTISEASGQQTSQVQSSLSPNNIRNNSVKLISAKTLMPAQRSQDYSPNKMQVGQPLGFAIELPSPVDGKEASVEIDTQLVHTSKFLENMTRPSTVEVHKFDLMDIFMGENEKLDYEYDDDDVLSVAASWNGLDDENVPEDEPRKEAKTAEQLPKPEPSTETLKPIEKENAQKMQSIKSFQIPKLNAKNLKTQPSVMRSIYENEELEKNKVLAKPAPPSLVHQPLAESNRNQRDEATAARRAKETFPVFAPLYRVAPESAATLVSANSQQVIPQVYFSTSNQDGVNWIKDVFGIRCMQSVDNKCISINCDHTMNSLGEVQKRLMRMDEDTLLSLYRQTIRSFFLFQTYYTSFVDIFKFRNLWQYLLIMLVDCRLYKSISAPLLAHVYEALSKCGMQKEAVKRIMEHVWLPCKAHKYRDLMLTTLNILSNANWEDYCDKLTQLDKDYNFEIPHKNLITILKSSVDCSDKFANALKLITLHPNSIRTNETIMSILSNASKSYSYMHNESASASQGPPGAASFLAPPAAIQPPHTTVPNFGYLPNPSFHYSNEYAINIHNFD

binding [1]: no binding
B3: Cutoff (protein, UniProt Q9V629 1-384)
chain: MNSNYTILNIRAHSWAEKDNLVFPTITKPVSNGWFAWSPIGQFEPNSQKVPYVVVPPSIKFPISLRYKDSPPKLEKKPNIFLDNMLQYIESSSYMYVMVRNNQQAQLNANIVCTSEVLELMMCAPYEKKTGWSLGVTRYRNTMYICRIDVEQPDPIDQDNLKRAMQEFWLRNLRTHCVFENGIKMHQHNQSSEEHLRFHGVFSFDLNGNRVLFDSPVLAEMPSTTLNGSALSWVDLQIRPMFMSRLDWPEHNRTEALKWWVKCFLLGIESLYIARRDENAHVHNIEKTLVRDLWKSCEKDWSPTVCANFMIYLLNCISQVMAPIDCPSTVYLFQFDASQGTVSYKGLRGRNQYTFVSDWFRMMLDDHTNDMCKTPNLQTMSSIV
